According to PubChem BioAssay AID2685 (National Center for Advancing Translational Sciences (NCATS), 2010):
This is one part of the list. Further columns of the screen follow, without active or inactive calls. The list favours compounds with an active or inconclusive main result. Words in brackets tell the shape of the fitted curve; partial curves, single points and poor fits give uncertain potencies.

Assay: qHTS Assay for Lipid Storage Modulators in Drosophila S3 Cells;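 on cell number change: cells counted by Cell Tracker Red CMTPX staining in the red channel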
Settings: BODIPY lipid droplet fluorescence, 18-24 h; for cell number change: measured here: cell count max response, cells fed with added oleic acid
How it was run: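 Drosophila S3 cells got compounds at several concentrations plus oleic acid (400 uM solution). Laser-scanning cytometry with 488 nm excitation read lipid droplets at 500-530 nm and cells at 575-640 nm. Percent activity was relative to 20 uM Triacsin C.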

[1] = measured here: lipid fluorescence (Fed channel) AC50, cells fed with added oleic acid
[2] = measured here: cell number channel AC50, cells fed with added oleic acid

COc1cc(C2CC(=O)c3c([nH]c(C(=O)OCCOC(C)C)c3C)C2)cc(OC)c1OC (configuration not stated)
cell number change: -24.5% | AC50 [1]: 29.1 µM [falling, partial curve]

N#Cc1ccccc1NC(=O)COC(=O)c1ccc2c(c1)OCO2
cell number change: 5.73% | AC50 [1]: 4.61 µM [rising, full curve, poor fit]

O=C(CC(=O)NCc1ccccc1)NCc1ccccc1
cell number change: 5.98%

CN(CC(=O)Nc1ccc(Cl)c(Cl)c1)C(=O)C12CC3CC(CC(C3)C1)C2
cell number change: -10.4% | AC50 [1]: 4.11 µM [falling, partial curve, poor fit]

COc1ccc(CC(=O)Nc2ccc3c(c2)CCC3)cc1OC
cell number change: 1.35% | AC50 [1]: 2.59 µM [rising, partial curve]

COc1ccc(C(C(=O)NC2CCCCC2)N(C(=O)CCl)c2cccc(Cl)c2)cc1 (configuration not stated)
cell number change: -37.5% | AC50 [2]: 9.2 µM [falling, partial curve, poor fit] | AC50 [1]: 4.61 µM [rising, single point]

Cc1cccc(C(CC(=O)NCc2ccco2)c2ccccc2)c1O (configuration not stated)
cell number change: 30.6%

O=C(Nc1cccc(O)c1)c1cccc(C(=O)Nc2cccc(O)c2)c1
cell number change: -33.2% | AC50 [2]: 9.2 µM [falling, single point] | AC50 [1]: 29.1 µM [falling, single point]

CC(=O)/C(C#N)=C1\NC(=O)C(Cc2ccc(F)cc2)S1 (configuration not stated)
cell number change: -3.97%

Clc1ccc(-n2c(SC/C=C/c3ccccc3)nnc2-c2cccnc2)cc1
cell number change: 3.05% | AC50 [2]: 1.03 µM [rising, partial curve] | AC50 [1]: 0.517 µM [rising, single point]

N#Cc1c(-c2ccc(F)cc2)noc1N
cell number change: 78.6% | AC50 [2]: 18.4 µM [rising, partial curve] | AC50 [1]: 4.11 µM [rising, single point]

COCc1nnc(NC(=O)c2ccc(Cl)cc2[N+](=O)[O-])s1
cell number change: -16.7% | AC50 [2]: 0.092 µM [falling, partial curve, poor fit]

C=CCn1c(=O)c(C(=O)Nc2ncccc2O)c(O)c2ccccc21
cell number change: -1.4%

Nn1c(SCC(=O)Nc2ccccc2Br)nnc1-c1ccco1
cell number change: 26.6%

O=C(NC(=S)Nc1ccccc1[N+](=O)[O-])c1ccccc1
cell number change: 7.04% | AC50 [1]: 2.06 µM [rising, partial curve]

O=S(=O)(c1cccc2nonc12)N1CCN(c2ccc(F)cc2)CC1
cell number change: -0.591% | AC50 [1]: 0.517 µM [falling, partial curve, poor fit]

Cc1ccc(-n2c(O)c(C=Nc3ccccc3-c3n[nH]c(=S)[nH]c3=O)c3ccccc3c2=O)c(C)c1
cell number change: 14.3% | AC50 [1]: 4.11 µM [rising, single point]

COc1ccc(Br)cc1/C=N/N1CCN(Cc2ccccc2Cl)CC1
cell number change: 27.7%

CC(C)n1c(C(O)c2ccc3c(c2)OCO3)nc2ccccc21 (configuration not stated)
cell number change: 35.1% | AC50 [2]: 8.2 µM [rising, partial curve, poor fit]

CC(C)(C)CC(C)(C)NC(=O)Nc1cccc([N+](=O)[O-])c1
cell number change: -66% | AC50 [2]: 20.6 µM [falling, single point] | AC50 [1]: 29.1 µM [falling, single point]

Cc1nn(C)c(C(=O)Nc2ccc(Br)cc2F)c1Br
cell number change: 7.96%

CC(C)CCNC(=O)Cn1c(=O)oc2cc(S(=O)(=O)N3CCc4ccccc43)ccc21
cell number change: 71.8% | AC50 [2]: 23.1 µM [rising, single point] | AC50 [1]: 29.1 µM [rising, single point]

COC(=O)C1=CN(C2CC2)C=C(C(=O)OC)C1c1ccc(C(F)(F)F)cc1
cell number change: -16.5% | AC50 [2]: 0.731 µM [falling, full curve, poor fit]

O=C(O)C1=NN(c2ccccc2)C(=O)CC1
cell number change: -0.525% | AC50 [1]: 3.26 µM [rising, full curve]

O=C(O)c1cc(=O)cc(C(=O)O)[nH]1
cell number change: -164% | AC50 [2]: 29.1 µM [falling, partial curve]

N#C/C(=C\c1cccc([N+](=O)[O-])c1)c1nnc2n1CCCCC2
AC50 [1]: 4.61 µM [falling, full curve]

Fc1cnc(Cl)nc1N1CCN(c2ccccc2)CC1
cell number change: 17.5% | AC50 [1]: 0.13 µM [rising, full curve, poor fit]

CC(C)NC(=O)/C(=C/c1ccco1)c1ccccc1
cell number change: 48.5% | AC50 [2]: 7.31 µM [rising, full curve, poor fit] | AC50 [1]: 29.1 µM [rising, single point]

Cc1cc2c(s1)c1c(n2C)C(=O)N(Cc2ccccc2F)C1
cell number change: -1.42%

O=C(N/N=C/c1ccc[nH]1)c1cc2ccccc2cc1O
cell number change: 51.4% | AC50 [2]: 29.1 µM [rising, single point] | AC50 [1]: 29.1 µM [rising, single point]

CC1(C)Cc2cccc(OCC(=O)N3CCN(S(=O)(=O)c4ccccc4F)CC3)c2O1
cell number change: -0.673% | AC50 [1]: 7.31 µM [rising, single point]

CCc1ccc(N2CC(C(=O)Nc3cccc(C(=O)NC4CC4)c3)CC2=O)cc1 (configuration not stated)
cell number change: 11.1% | AC50 [1]: 0.116 µM [rising, full curve, poor fit]

COc1ccc(Nc2ncnc3c2oc2ccccc23)cc1
cell number change: -20.3% | AC50 [1]: 11.6 µM [rising, partial curve, poor fit]

Cc1ccc(Cc2c(C)c(C#N)c3[nH]c4ccccc4n3c2=O)cc1
cell number change: -54.5% | AC50 [2]: 1.3 µM [falling, partial curve, poor fit] | AC50 [1]: 29.1 µM [falling, partial curve, poor fit]

COc1ccc(NC(=O)C(=O)NNC(=O)COc2ccc(OC)cc2)cc1
cell number change: 12.5% | AC50 [1]: 29.1 µM [rising, single point]

CC(C)c1ccc(C(C(=O)NC2CCCC2)N(C(=O)c2csnn2)C2CC2)cc1 (configuration not stated)
cell number change: -7.69%

COc1cc(/C=N/NC2=NS(=O)(=O)c3ccccc32)ccc1OC(C)=O
cell number change: 7.56% | AC50 [1]: 0.00461 µM [rising, full curve, poor fit]

Cc1nn(-c2ccccc2)c(Cl)c1C(=O)N1CCN(C)CC1
cell number change: -78.5% | AC50 [2]: 32.6 µM [falling, partial curve, poor fit]

Cc1ccc(S(=O)(=O)/N=C2\C(=O)c3ccccc3C([O-])=C2n2cc[n+](CCC(C)C)c2)cc1
cell number change: -23.2% | AC50 [1]: 14.6 µM [rising, partial curve]
